Test results reported in US8420067B2 (Starpharma Pty Ltd, priority 2006, dated 2013).

Test: peptide synthesis
Conditions: late stage modification step

With “[NH2] EOEOEN [Su(NPN)2] [Lys]16 [PEG570]32” the step yield was 90%.
